Results: PubChem BioAssay AID493014 (National Center for Advancing Translational Sciences (NCATS), 2011)
The other results are listed elsewhere or left out. These are further read-outs of the screen, such as a control signal, another cell line or another target. No call is given for them. Most of these compounds were active or inconclusive in the main read-out, so they are no random draw. The note in brackets gives the kind of curve behind each potency; many fits are weak.

Assay: qHTS Assay to Find Inhibitors of Chronic Active B-Cell Receptor Signaling
Settings: ABC-DLBCL IkBa-CBG/CBR reporter, luminescence ratio (green luciferase fused to IkBa over red control in TMD8 lymphoma cells), 4 h
Procedure, shortened: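 Compounds up to 46 uM were incubated four hours with TMD8 cells whose green CBG68 luciferase is fused to IkappaBalpha; red CBR luminescence normalised the signal, and concentration-effect curves were fitted to fusion, red and ratio data.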

[1] = measured here: CBR red luminescence, cell number

Compound | AC50 [1] | AC50 (measured here: IkBa-CBG green luminescence)
C/C(=N\NC(=O)c1ccco1)c1ccc(NC(=O)c2ccccc2)cc1 | 7.08 µM [falling, partial curve] | 
CN1C(=O)Cc2cc(S(=O)(=O)N3CCN(c4cccc(Cl)c4)CC3)ccc21 | 5.01 µM [falling, full curve] | 
Cc1cc(/C=N/NC(=O)c2ccccc2F)c(C)n1-c1ccccc1 | 12.6 µM [falling, partial curve] | 
CC(C)CNC(=S)NC1CCCC1 | 2.59 µM [rising, partial curve] | 
CC1Cc2ccccc2N1C(=S)NC(=O)c1ccc(Cl)cc1Cl (configuration not stated) | 29.1 µM [rising, single point] | 
COC(=O)c1ccccc1NC(=O)C12CCC(C)(C(=O)O1)C2(C)C (configuration not stated) | 4.11 µM [rising, partial curve, poor fit] | 
O=C(Nc1cccnc1)Nc1ccc2c(c1)OCO2 | 29.1 µM [falling, single point] | 
COc1ccccc1CNC(=O)CSc1ccc(-c2cccc([N+](=O)[O-])c2)nn1 | 0.562 µM [rising, full curve, poor fit] | 
Cc1ccc(S(=O)(=O)N2CCCCC2)cc1NC(=O)c1ccccc1Cl | 14.6 µM [rising, partial curve, poor fit] | 
C=CCOc1ccc(CNC(C)(C)C)cc1OC | 6.31 µM [rising, single point] | 
Cc1ccc(N2C(=O)[C@@H]3[C@H](C2=O)C2CCCN2[C@@H]3C(=O)c2ccccc2)cc1 (some centres not stated) | 11.2 µM [falling, partial curve, poor fit] | 
Cc1ccc(Nc2ncccc2C(N)=O)cc1 | 16.4 µM [rising, single point] | 
CCOc1ccccc1Nc1cc(C)nc2nnnn12 | 2.82 µM [falling, full curve] | 
COc1ccccc1OCC(=O)Nc1ccc(O)cc1C(=O)O | 2.59 µM [falling, partial curve] | 
C=CCNC(=O)/C(C#N)=C/c1c(C)nn(-c2ccccc2)c1Cl | 8.2 µM [falling, partial curve, poor fit] | 
Cc1cc(C(=O)CSc2nnnn2-c2ccc(Cl)cc2)c(C)n1CC1CCCO1 (configuration not stated) | 0.731 µM [rising, full curve, poor fit] | 
Cc1cccc(C(=O)Nc2nnc(-c3cccnc3)o2)c1 | 25.1 µM [falling, single point] | 
N/C(=N\OC(=O)/C=C/c1ccccc1)c1ccncc1 | 7.08 µM [falling, partial curve] | 
Cc1ccc(-c2nnc(Nc3ccc(C(N)=O)cc3)c3ccccc23)cc1S(=O)(=O)NCC1CCCO1 (configuration not stated) | 10.3 µM [falling, partial curve, poor fit] | 
CC1CCc2nc(NC(=O)Nc3ccc4c(c3)OCO4)sc2C1 (configuration not stated) | 0.13 µM [falling, full curve, poor fit] | 
COc1ccc(N2CCN(C(=O)COC(=O)c3cnccn3)CC2)cc1 | 0.461 µM [rising, full curve, poor fit] | 

Compound | AC50 [1] | AC50 (measured here: IkBa-CBG green luminescence)
Cc1nnc(SCC(=O)Nc2ccccc2N2CCOCC2)s1 | 4.11 µM [rising, single point] | 
CC(C)(C)C(=O)Oc1cccc(Nc2ncnc3ccccc23)c1 | 12.6 µM [falling, partial curve, poor fit] | 
COc1cc(C(CC(=O)Nc2ccc(C)cn2)N2Cc3ccccc3C2=O)cc(OC)c1OC (configuration not stated) | 0.355 µM [rising, full curve, poor fit] | 
CCOc1ccc2nc(COC(=O)c3ccncc3)c(C(=O)c3ccccc3)[n+]([O-])c2c1 | 15.8 µM [rising, partial curve, poor fit] | 
COc1cccc(-n2nc(-c3ccnn3-c3ccc(C)cc3)c(=O)n(C)c2=O)c1 | 1.46 µM [falling, full curve, poor fit] | 
O=C(NCc1ccccc1)c1cccnc1Sc1ccccc1 | 6.31 µM [falling, single point] | 
CC(=O)Nc1cc2nc(C)n(Cc3ccccc3[N+](=O)[O-])c2nc1C | 6.31 µM [rising, single point] | 
Cn1c(=O)c2c(ncn2CC(=O)N/N=C/C=C/c2ccccc2[N+](=O)[O-])n(C)c1=O | 5.62 µM [rising, single point] | 
N#C/C(=C(/O)c1ccc([N+](=O)[O-])s1)c1nc2ccccc2[nH]1 | 1.26 µM [falling, full curve] | 
NC(=O)c1ccc(Cn2c(C(=O)c3cc(Cl)c(N)c(Cl)c3)c3ccccc3[n+]2[O-])cc1 | 29.1 µM [falling, single point] | 18.4 µM [falling, single point]
COC(=O)c1c(NC(=O)COC(=O)[C@@H](NS(=O)(=O)c2ccccc2)C(C)C)sc2c1CCC2 | 20.6 µM [falling, partial curve, poor fit] | 
O=C(COC(=O)c1ccc(NS(=O)(=O)c2cccs2)cc1)Nc1nc2c(F)c(F)c(F)cc2s1 | 5.01 µM [falling, partial curve] | 
Cc1cc(C)cc(C(=O)N2CCN(c3ccccn3)CC2)c1 | 0.447 µM [rising, full curve, poor fit] | 
c1ccc2sc(Sc3ncnc4sccc34)nc2c1 | 6.51 µM [falling, partial curve] | 
Cc1cccc(OCC2=N/C(=C\N(C)C)C(=O)O2)c1 | 15.8 µM [rising, partial curve] | 
Cc1c(NC(=O)c2cnn3c(C(F)(F)F)cc(-c4ccco4)nc23)c(=O)n(-c2ccccc2)n1C | 20 µM [rising, partial curve, poor fit] | 
O=C(Nc1cccc(S(=O)(=O)N2CCCCC2)c1)c1cc(=O)[nH]c2ccccc12 | 0.103 µM [rising, full curve, poor fit] | 
Cc1cc2ccc(C)c(C)c2nc1SCC#N | 35.5 µM [rising, single point] | 
CCOC(=O)c1nnc(-c2ccc(C)cc2)nc1Sc1ccc(Cl)cc1 | 13 µM [falling, single point] | 
O=C(NC1CCCCC1)C(c1ccc(Cl)cc1)N(C(=O)c1cnccn1)c1ccc2c(c1)OCO2 (configuration not stated) | 32.6 µM [falling, single point] | 

Pulled by structure from the entries so far:
Compound | AC50 [1] | AC50 (measured here: IkBa-CBG green luminescence)
CC(C)(C)C(=O)Oc1cccc(Nc2ncnc3ccccc23)c1 | 12.6 µM [falling, partial curve, poor fit] | 
O=C(NC1CCCCC1)C(c1ccc(Cl)cc1)N(C(=O)c1cnccn1)c1ccc2c(c1)OCO2 (configuration not stated) | 32.6 µM [falling, single point] | 
N#C/C(=C(/O)c1ccc([N+](=O)[O-])s1)c1nc2ccccc2[nH]1 | 1.26 µM [falling, full curve] | 
